No constants are given. Whether binding was seen depends on the method and setting. In cells and extracts the contact can be indirect. Binding calls can cover weak binding; strength is not graded here.
Experiments:
[1] = molecular target: FLAG-cyclin B1 (UniProt P14635); assay: co-IP; MCF7 cells transfected with Myc-BRCA1-Δ11 and FLAG-cyclin B1, synchronised (aphidicolin 0.3 μM 24 h, release 8 h, nocodazole 100 ng/mL 24 h, release 2 h), without or with irradiation (10 Gy); anti-FLAG antibody-conjugated agarose; Western blot with anti-Myc
[2] = molecular target: FLAG-cyclin B1 (UniProt P14635); assay: co-IP; lysates of transfected 293T cells, with or without irradiation (10 Gy); anti-FLAG M2 affinity gel, eluted with FLAG peptides; immunoblot

Chains of the proteins cited; added tags and fusions are not shown.
UniProt P14635: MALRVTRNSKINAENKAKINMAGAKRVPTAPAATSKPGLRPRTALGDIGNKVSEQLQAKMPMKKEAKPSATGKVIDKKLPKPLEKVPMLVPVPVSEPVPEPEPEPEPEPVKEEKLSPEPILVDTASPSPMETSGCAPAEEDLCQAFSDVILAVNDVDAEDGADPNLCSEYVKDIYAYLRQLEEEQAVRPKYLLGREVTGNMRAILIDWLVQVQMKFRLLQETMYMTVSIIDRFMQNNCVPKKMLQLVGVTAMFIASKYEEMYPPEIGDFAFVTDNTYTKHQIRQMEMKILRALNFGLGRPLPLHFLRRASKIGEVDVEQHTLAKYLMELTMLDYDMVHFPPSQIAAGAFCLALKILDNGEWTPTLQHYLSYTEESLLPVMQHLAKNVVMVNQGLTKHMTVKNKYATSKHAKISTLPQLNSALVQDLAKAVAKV

## Myc-BRCA1-Δ11 (from UniProt P38398-5)
[1]
  binding: binds
[2]
  binding: binds

— article PMC6191436
